From article PMC8517475 come the findings set out here.

These are yes or no findings as the source states them, for the method shown. In cells and extracts the contact can be indirect. Some entries that bind do so weakly or less than the wild type.

The target of the test is T1, Receptor-interacting serine/threonine-protein kinase 1 (mouse (endogenous in mouse hearts)), Q60855.
T1 chain: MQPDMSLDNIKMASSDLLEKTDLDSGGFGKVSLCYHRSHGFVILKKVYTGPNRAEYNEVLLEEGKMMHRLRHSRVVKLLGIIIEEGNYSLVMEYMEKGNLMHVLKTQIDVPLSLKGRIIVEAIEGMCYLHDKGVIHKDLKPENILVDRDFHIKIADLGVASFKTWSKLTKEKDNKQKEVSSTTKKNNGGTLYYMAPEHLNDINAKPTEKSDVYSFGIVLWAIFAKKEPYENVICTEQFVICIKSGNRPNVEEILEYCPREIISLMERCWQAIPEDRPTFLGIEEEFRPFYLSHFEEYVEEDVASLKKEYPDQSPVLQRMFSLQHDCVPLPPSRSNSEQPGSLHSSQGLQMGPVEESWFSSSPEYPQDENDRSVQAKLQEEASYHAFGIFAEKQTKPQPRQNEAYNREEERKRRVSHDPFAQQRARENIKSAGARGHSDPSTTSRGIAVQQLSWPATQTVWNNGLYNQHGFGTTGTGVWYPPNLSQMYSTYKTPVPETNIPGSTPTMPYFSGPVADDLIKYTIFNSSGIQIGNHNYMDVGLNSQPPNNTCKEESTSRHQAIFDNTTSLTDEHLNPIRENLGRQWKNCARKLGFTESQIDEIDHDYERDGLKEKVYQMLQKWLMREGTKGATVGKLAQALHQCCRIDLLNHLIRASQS
Nature of the test: co-IP; anti-RIP1 antibody (IgG as control), protein A/G agarose, blot for RIP3; mouse hearts: sham or I/R in wild-type and ALDH2-Tg mice (Supplementary Figures 2E,F), and Langendorff-perfused hearts with vehicle or 60 uM 4-HNE for 1 h (Figures 3H,I). Particulars: remark: other sources report otherwise.

B1: Receptor-interacting serine/threonine-protein kinase 3, Q9QZL0 1-486 (protein)
chain: MSSVKLWPTGASAVPLVSREELKKLEFVGKGGFGVVFRAHHRTWNHDVAVKIVNSKKISWEVKAMVNLRNENVLLLLGVTEDLQWDFVSGQALVTRFMENGSLAGLLQPECPRPWPLLCRLLQEVVLGMCYLHSLNPPLLHRDLKPSNILLDPELHAKLADFGLSTFQGGSQSGSGSGSGSRDSGGTLAYLDPELLFDVNLKASKASDVYSFGILVWAVLAGREAELVDKTSLIRETVCDRQSRPPLTELPPGSPETPGLEKLKELMIHCWGSQSENRPSFQDCEPKTNEVYNLVKDKVDAAVSEVKHYLSQHRSSGRNLSAREPSQRGTEMDCPRETMVSKMLDRLHLEEPSGPVPGKCPERQAQDTSVGPATPARTSSDPVAGTPQIPHTLPFRGTTPGPVFTETPGPHPQRNQGDGRHGTPWYPWTPPNPMTGPPALVFNNCSEVQIGNYNSLVAPPRTTASSSAKYDQAQFGRGRGWQPFHK
B1: the binding entry is “binds”.
